These are yes or no findings as the source states them, for the method shown. In cells and extracts the contact can be indirect. Some results given as binding are weak or reduced against the parent protein; the word gives no strength.
Key:
[1] = biological target: toll like receptor 2 (TLR2) (human (endogenous in HMrSV5)) (UniProt O60603); test: co-IP; lysate of HMrSV5 after co-culture with Oe-BGN AGS for 96h; supernatant incubated with anti-BGN antibody, IgG, TLR2 antibody or TLR4 antibody overnight at 4 °C; Protein A/G agarose beads 12h at 4 °C; western blot
[2] = biological target: toll like receptor 4 (TLR4) (human (endogenous in HMrSV5)) (UniProt O00206); test: as above

Sequences of proteins named here, by UniProt entry; tags and fusion partners are left off. Residues count along the entry.
UniProt O60603: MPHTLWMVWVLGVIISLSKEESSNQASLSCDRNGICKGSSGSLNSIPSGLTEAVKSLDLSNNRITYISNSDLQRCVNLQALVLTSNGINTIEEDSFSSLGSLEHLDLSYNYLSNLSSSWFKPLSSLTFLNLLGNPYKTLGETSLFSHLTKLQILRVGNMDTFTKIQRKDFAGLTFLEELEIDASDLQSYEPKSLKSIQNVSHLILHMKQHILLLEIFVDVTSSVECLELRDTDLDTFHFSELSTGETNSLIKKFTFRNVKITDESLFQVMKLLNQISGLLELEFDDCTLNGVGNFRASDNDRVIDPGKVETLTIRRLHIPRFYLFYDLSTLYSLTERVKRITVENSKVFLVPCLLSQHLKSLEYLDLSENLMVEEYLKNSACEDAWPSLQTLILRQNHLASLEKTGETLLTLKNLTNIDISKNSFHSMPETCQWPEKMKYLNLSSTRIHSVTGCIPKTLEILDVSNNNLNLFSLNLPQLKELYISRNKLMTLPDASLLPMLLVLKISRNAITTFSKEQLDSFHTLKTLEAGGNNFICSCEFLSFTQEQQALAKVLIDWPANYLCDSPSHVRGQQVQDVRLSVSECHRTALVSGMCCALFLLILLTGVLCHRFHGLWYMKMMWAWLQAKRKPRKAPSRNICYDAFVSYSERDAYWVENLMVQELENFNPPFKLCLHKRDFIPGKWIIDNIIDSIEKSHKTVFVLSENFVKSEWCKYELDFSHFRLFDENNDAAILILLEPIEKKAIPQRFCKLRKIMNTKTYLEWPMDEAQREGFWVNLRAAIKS
UniProt O00206, residues 24-839: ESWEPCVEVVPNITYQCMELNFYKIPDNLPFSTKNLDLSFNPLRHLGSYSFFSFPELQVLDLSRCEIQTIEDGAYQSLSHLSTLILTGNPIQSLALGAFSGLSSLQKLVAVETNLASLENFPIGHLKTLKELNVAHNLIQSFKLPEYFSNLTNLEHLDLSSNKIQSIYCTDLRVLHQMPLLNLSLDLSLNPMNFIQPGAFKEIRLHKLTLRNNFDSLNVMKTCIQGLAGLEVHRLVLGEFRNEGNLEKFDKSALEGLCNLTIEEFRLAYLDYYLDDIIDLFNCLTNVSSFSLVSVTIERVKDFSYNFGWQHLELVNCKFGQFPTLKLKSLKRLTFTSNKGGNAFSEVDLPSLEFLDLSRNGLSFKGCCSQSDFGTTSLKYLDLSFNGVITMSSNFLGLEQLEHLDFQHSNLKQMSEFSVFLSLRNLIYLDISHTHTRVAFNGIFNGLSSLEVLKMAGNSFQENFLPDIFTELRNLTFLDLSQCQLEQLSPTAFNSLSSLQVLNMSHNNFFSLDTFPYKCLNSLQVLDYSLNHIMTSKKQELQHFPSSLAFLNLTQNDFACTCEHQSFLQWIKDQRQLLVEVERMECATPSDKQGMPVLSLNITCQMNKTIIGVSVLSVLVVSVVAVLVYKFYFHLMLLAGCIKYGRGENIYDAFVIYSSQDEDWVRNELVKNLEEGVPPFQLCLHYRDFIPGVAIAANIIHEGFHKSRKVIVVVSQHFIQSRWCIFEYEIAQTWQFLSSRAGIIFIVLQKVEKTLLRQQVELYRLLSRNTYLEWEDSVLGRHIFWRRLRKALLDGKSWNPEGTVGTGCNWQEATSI

B1: biglycan (BGN) (ligand, UniProt P21810 38-368)
chain: DEEASGADTSGVLDPDSVTPTYSAMCPFGCHCHLRVVQCSDLGLKSVPKEISPDTTLLDLQNNDISELRKDDFKGLQHLYALVLVNNKISKIHEKAFSPLRKLQKLYISKNHLVEIPPNLPSSLVELRIHDNRIRKVPKGVFSGLRNMNCIEMGGNPLENSGFEPGAFDGLKLNYLRISEAKLTGIPKDLPETLNELHLDHNKIQAIELEDLLRYSKLYRLGLGHNQIRMIENGSLSFLPTLRELHLDNNKLARVPSGLPDLKLLQVVYLHSNNITKVGVNDFCPMGFGVKRAYYNGISLFNNPVPYWEVQPATFRCVTDRLAIQFGNYKK
binding [1]: binds
binding [2]: binds

From article PMC9830517
